## Library screen at single concentrations

Chains of the proteins cited; added tags and fusions are not shown. Residues count along the entry.
UniProt Q8IDJ8, 1-583: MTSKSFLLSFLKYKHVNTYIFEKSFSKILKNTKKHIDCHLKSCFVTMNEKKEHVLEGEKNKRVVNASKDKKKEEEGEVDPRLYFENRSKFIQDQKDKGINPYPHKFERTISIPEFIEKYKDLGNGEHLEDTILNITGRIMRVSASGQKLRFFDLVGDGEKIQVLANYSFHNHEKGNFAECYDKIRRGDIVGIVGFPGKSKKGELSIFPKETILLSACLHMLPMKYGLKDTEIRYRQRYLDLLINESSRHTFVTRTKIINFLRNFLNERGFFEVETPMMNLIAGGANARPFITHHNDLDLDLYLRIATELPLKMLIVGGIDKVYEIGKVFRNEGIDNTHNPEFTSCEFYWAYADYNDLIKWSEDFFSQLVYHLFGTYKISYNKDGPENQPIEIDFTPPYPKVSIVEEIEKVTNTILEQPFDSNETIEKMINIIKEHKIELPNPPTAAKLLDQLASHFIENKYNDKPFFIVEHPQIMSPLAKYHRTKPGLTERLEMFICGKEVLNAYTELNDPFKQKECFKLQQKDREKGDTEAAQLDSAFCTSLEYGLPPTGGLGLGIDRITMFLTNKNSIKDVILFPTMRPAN
UniProt I6X8D2, whole entry: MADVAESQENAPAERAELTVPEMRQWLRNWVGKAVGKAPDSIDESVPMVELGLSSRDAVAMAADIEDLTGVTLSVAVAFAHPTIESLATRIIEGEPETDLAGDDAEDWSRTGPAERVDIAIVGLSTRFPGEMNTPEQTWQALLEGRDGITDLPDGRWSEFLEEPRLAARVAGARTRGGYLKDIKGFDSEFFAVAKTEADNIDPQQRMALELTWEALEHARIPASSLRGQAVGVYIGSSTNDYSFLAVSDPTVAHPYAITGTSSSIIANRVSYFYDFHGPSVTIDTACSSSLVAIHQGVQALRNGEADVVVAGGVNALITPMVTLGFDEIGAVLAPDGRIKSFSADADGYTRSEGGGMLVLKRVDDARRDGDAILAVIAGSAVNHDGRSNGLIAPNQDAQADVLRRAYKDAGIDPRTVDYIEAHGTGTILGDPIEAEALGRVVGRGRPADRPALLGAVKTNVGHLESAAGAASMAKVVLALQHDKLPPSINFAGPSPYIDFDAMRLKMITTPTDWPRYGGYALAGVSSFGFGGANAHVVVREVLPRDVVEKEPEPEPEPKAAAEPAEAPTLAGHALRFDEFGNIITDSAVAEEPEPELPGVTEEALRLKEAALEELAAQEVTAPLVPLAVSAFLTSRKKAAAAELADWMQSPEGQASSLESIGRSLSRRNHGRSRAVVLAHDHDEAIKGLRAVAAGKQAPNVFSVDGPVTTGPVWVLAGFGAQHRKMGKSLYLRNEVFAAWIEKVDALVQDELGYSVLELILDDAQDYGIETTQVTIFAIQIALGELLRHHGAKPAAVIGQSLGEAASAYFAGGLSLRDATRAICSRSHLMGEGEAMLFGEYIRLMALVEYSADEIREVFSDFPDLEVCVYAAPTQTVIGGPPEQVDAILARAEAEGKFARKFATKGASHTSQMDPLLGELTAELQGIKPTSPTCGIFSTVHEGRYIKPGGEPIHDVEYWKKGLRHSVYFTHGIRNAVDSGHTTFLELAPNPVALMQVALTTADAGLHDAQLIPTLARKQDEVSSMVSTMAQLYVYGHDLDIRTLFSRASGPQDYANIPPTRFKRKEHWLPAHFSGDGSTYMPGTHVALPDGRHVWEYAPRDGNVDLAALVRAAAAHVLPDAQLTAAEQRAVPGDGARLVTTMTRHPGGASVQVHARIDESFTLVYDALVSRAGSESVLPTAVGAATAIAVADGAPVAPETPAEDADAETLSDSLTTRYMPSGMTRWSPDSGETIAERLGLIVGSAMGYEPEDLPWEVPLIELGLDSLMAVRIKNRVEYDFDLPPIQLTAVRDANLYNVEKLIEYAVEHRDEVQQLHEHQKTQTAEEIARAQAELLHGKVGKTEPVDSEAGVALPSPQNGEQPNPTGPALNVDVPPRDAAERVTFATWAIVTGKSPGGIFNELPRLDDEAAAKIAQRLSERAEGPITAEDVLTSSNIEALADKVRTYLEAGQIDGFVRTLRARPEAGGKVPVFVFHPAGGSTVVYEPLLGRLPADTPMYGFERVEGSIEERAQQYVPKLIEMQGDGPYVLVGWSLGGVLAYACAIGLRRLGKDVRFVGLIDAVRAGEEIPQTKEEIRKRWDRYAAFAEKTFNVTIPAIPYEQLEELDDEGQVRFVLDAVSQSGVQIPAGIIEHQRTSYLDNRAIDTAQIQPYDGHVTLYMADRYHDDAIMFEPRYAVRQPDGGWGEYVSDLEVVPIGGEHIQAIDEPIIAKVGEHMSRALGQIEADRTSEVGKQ
UniProt P9WNZ1, whole entry: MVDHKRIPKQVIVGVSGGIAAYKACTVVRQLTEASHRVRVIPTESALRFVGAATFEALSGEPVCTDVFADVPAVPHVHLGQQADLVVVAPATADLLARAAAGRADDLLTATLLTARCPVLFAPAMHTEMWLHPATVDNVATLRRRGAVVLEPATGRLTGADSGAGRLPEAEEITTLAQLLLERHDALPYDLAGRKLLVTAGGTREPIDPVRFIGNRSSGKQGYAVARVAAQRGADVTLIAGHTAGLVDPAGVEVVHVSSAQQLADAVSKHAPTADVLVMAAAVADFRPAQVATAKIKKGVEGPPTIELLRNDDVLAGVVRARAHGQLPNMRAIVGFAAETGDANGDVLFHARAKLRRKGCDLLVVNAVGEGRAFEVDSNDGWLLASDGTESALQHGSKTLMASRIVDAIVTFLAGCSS
UniProt Q4DA54, 1-478: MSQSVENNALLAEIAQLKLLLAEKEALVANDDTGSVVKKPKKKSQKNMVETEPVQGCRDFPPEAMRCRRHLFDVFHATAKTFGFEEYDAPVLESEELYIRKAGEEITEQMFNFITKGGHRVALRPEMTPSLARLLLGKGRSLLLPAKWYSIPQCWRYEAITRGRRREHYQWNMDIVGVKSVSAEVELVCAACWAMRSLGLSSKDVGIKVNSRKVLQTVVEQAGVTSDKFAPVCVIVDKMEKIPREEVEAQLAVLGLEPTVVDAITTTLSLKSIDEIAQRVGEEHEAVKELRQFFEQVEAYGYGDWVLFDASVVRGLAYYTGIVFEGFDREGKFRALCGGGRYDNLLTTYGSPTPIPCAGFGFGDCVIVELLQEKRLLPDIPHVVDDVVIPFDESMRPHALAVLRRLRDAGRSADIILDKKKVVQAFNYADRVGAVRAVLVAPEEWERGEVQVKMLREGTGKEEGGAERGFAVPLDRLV
UniProt P9WFT3, whole entry: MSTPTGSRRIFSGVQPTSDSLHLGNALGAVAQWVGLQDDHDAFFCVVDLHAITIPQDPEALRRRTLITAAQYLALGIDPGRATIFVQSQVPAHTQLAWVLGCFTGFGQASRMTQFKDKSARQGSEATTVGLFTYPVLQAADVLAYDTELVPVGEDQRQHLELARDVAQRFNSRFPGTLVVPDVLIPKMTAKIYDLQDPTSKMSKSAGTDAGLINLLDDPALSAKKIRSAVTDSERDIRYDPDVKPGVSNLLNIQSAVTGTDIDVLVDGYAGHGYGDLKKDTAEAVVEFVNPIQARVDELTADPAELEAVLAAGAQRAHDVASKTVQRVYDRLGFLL
UniProt P9WPC5, whole entry: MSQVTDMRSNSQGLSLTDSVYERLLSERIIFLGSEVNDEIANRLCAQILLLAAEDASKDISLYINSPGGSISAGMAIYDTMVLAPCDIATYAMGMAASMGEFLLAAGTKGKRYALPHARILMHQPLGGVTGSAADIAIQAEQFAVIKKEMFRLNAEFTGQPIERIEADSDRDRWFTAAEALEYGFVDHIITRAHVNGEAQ
UniProt P9WPC3, whole entry partner: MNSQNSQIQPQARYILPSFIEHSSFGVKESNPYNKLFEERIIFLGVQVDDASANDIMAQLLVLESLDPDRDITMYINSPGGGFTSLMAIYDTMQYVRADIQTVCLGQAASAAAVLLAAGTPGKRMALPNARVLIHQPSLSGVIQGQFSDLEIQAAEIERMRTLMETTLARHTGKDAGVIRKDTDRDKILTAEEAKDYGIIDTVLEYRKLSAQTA

PfKRS1: 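Lysine-tRNA ligase, Plasmodium falciparum 3D7 (UniProt Q8IDJ8). Enzyme assay of the cytosolic lysyl-tRNA synthetase in 384-well plates, read by luminescence. Tested at 30 µM. Higher reads as stronger inhibition, judged from the few compounds that gave an IC50. Size under these conditions: about 69,000 compounds, about 49 of them at 50% or above in at least one test.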
Pks13 thioesterase: 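Polyketide synthase Pks13, Mycobacterium tuberculosis (UniProt I6X8D2). Enzyme assay of the thioesterase domain of polyketide synthase 13; the read-out is not stated. Concentration: 30 µM. Higher reads as stronger inhibition (inferred from which compounds were picked for retests). About 67,000 compounds were tested under these conditions; 0.46% (about 300) showed 50% or more at least once.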
CoaBC: 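Coenzyme A biosynthesis protein CoaBC, Mycobacterium tuberculosis (UniProt P9WNZ1). Enzyme assay of CoaBC with a phosphate dye (Biomol Green) read at 650 nm. Tested at 30 µM. Direction is inferred from only a few compounds that gave an IC50; most scored high, so higher reads as stronger inhibition. Most strong results did not repeat in a second test. Of about 67,000 compounds tested this way, about 40 (0.06%) reached 50% or more in at least one test.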
TcHisRS: 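Enzyme assay of histidyl-tRNA synthetase; the read-out is not stated. Target: Histidine-tRNA ligase, Trypanosoma cruzi CL Brener (UniProt Q4DA54). Tested at 30 µM. Direction is inferred from retests: higher values go with stronger inhibition. About 69,000 compounds were tested under these conditions; 0.045% (about 31) showed 50% or more at least once.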
MtTrpRS: 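Enzyme assay of tryptophanyl-tRNA synthetase; the read-out is not stated. Target: Tryptophan-tRNA ligase, Mycobacterium tuberculosis (UniProt P9WFT3). Concentration: 10 µM. Higher most likely means stronger inhibition; the record gives no direction and few retests gave an IC50. Of about 65,000 compounds tested this way, about 64 (0.098%) reached 50% or more in at least one test.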
ClpP1P2: 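ClpP1P2, Mycobacterium tuberculosis (UniProt P9WPC5 and UniProt P9WPC3). Protease assay of ClpP1P2, read by the AMC dye that it sets free. Compounds at 50 µM. Direction is inferred from only a few compounds that gave an IC50; most scored high, so higher reads as stronger inhibition. Most other retested compounds had strongly negative values. Size under these conditions: about 69,000 compounds, about 10 of them at 50% or above in at least one test.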

Results are given as percent effect. The controls that fix the scale are not given in the record; negative values are as filed. Compounds were drawn at random from those tested, without regard to their results. A dash means the value is not listed here; it may have been measured.

structure,PfKRS1,Pks13 thioesterase,CoaBC,TcHisRS,MtTrpRS,ClpP1P2
CC(C)(C)C(C#N)NC(=O)c1ccc(Oc2cccnc2)cc1 (stereo unspecified),3.048,-3.036,2.893,2.89,-5.217,-14.95
Nc1nccc(C2CCCN2CCc2ccccc2)n1 (stereo unspecified),3.768,-,12.12,16.17,-0.2342,-31.17
Cc1nc(CCNC(=O)NC(C)Cn2cccn2)cs1 (stereo unspecified),0.5932,2.493,6.633,6.433,-10.09,-0.2021
CCCOc1ccccc1CCCNc1ncnc2oc(C)nc12,2.604,17.99,3.808,14.29,3.038,-15.22
CCc1nc(C)c(-c2nccn2CC2CC(=O)N(CC)C2)[nH]1 (stereo unspecified),0.8182,5.11,1.535,5.051,-3.622,-15.84
CN(C)C[C@@H]1C[C@@H]2CN(C(=O)Cc3cccs3)CC[C@@H]2N1C,-3.246,-49.15,-0.2353,2.404,6.136,-2.502
CCN(CC(C)C#N)C(=O)CSc1ccc(C(F)(F)F)cn1 (stereo unspecified),1.995,-28.68,-0.641,1.97,-3.439,-7.198
Fc1cc(CN2CCOC3(CCOCC3)C2)ccc1OC(F)F,1.081,-11.25,5.909,-0.5405,-0.2974,-2.333
O=C(NCc1ccccc1)NCc1nc(-c2ccncc2)n[nH]1,1.479,-2.304,1.699,8.046,-2.467,-17.16
Cc1cnc(CNC(=O)C2CCOc3ccccc3C2)cn1 (stereo unspecified),3.551,-22.28,3.831,1.212,3.956,-5.802
CN(Cc1cn(C2CCNCC2)nn1)CC1CCCO1 (stereo unspecified),3.793,-13.31,5.018,-1.739,-0.6415,-6.193
Cc1cccc(C)c1NC(=O)CNC(C)Cc1ccsc1 (stereo unspecified),1.65,-16.67,3.797,5.419,2.259,12.63
CC(C)c1nnc2sc(CC3CCS(=O)(=O)C3)nn12 (stereo unspecified),12.25,-13.67,6.925,-19.58,1.09,5.172
CCCc1cncnc1N1CCC2(CCC(=O)N(CCOC)C2)CC1,4.781,-25.9,0.3589,-1.288,2.807,-10.7
COc1ccc(C2CCCN2C(=O)NCCCn2ccnc2)cc1 (stereo unspecified),-1.198,-31.56,-4.737,1.466,9.358,-13.41
CN(C)c1ccc(CNCc2cnc(N3CCOCC3)nc2)cn1,-3.707,-7.757,-1.339,6.077,-0.9288,-4.15
N#Cc1ccc(CN2CCCC2Cn2cccn2)cc1 (stereo unspecified),0.5536,-4.453,4.847,18.71,-4.191,-11.71
CSCC(=O)N[C@H]1CC[C@H](Nc2nccc(-c3ccncc3)n2)C1,-3,4.598,1.527,-1.205,-2.288,2.2
Cn1cccc1C(=O)NCc1cn2c(n1)CN(S(=O)(=O)C1CC1)CC2,4.618,-5.827,0.3708,4.082,1.44,7.736
Cc1cc(=O)n(CC(=O)NC(C)C)c(Nc2ccc(F)c(C)c2)n1,-1.133,25.59,-1.453,7,-7.906,21.95
CCCn1cc(NC(=O)c2cccc3cccnc23)ccc1=O,8.061,-16.8,5.19,-4.878,6.39,6.381
CN(C(=O)c1cccnc1)C1CCCN(CCc2ccccc2)C1 (stereo unspecified),2.525,1.148,2.146,0,-2.199,-9.048
Cc1cccc(-c2nc(N)nc3c2CN(C(=O)c2ccncn2)C3C)c1 (stereo unspecified),6.987,-4.761,-2.358,6.186,2.617,2.557
O=C(c1ccc(S(=O)(=O)NCc2ccncc2)cc1)N1CCNCC1,4.006,-12.92,-7.297,-0.4292,-0.3661,8.908
O=C(NC[C@H]1OC[C@@H](NC2CCC2)[C@@H]1O)Nc1ccccc1,1.791,20.24,-2.428,7.609,4.932,-8.113
CN(C)C(CNC(=O)c1nc(N2CCOCC2)ncc1Cl)c1ccco1 (stereo unspecified),3.653,-12.44,-,5.263,2.89,11.28
O=C(C1CCCN(C2CCOCC2)C1)N1Cc2ccccc2C1 (stereo unspecified),2.161,-13.82,0.8264,7,1.028,28.33
Cc1ncn(CCNC(=O)Nc2ccccc2)c(=O)c1C,2.231,-16.78,11.33,-0.5291,10.1,-3.547
Cn1ccnc1CN1CCC2(CC1)CC(Nc1ccccn1)CO2 (stereo unspecified),1.815,-36.36,1.053,3.226,2.47,0.4565
Cc1n[nH]c(-c2ccc(NC(=O)C(C)(C)N3CCN(C)CC3)cc2)n1,9.54,-23.95,3.415,0,2.933,-0.0771
CCC(C)(C)NC(=O)c1ccc(-c2ccco2)[nH]c1=O,3.942,25.76,3.226,5.028,-6.133,-194.4
Cc1ccc(CN(C)C(=O)CN2CCCC2Cn2cccn2)o1 (stereo unspecified),-1.388,1.824,8.316,7.5,1.161,-15.48
CNc1cc2c(nn1)CCN(C(=O)c1ccc(-n3cccn3)nc1)C2,2.762,4.811,-1.882,8.458,5.815,-10.34
O=C(c1cccnn1)N1C[C@@H]2CC[C@H](Oc3cccc(F)c3)[C@@H]2C1,-1.225,-12.81,10.04,8.24,-,-10.34
O=S(=O)(c1cccc(Cl)c1)N1CCCC(Cn2cncn2)C1 (stereo unspecified),2.863,-16.98,7.57,6.316,-1.815,-4.113
CCCN1Cc2ccccc2NC(=O)C12CCNC2 (stereo unspecified),2.521,-8.475,1.316,2.959,-8.384,-10.31
CC(C)c1nn(C)c(N2CCOCC2)c1CNCCS(C)(=O)=O,3.423,1.004,0,8.397,-0.3712,5.339
COCCNC(=O)Nc1ccn(-c2cccc(C(F)(F)F)c2)n1,0.9685,5.015,-7.317,0.9804,12.28,-10.92
CCc1nc(NS(=O)(=O)c2cc(C)ccc2Br)no1,4.057,-13.39,1.623,4.082,4.378,-9.072
CC[C@H]1CN2CC[C@H]1C[C@@H]2CNC(=O)Nc1cccc(C(F)(F)F)c1,5.051,-29.75,1.129,9.901,-2.636,-7.314

Repeated from the top, 4 entries:

| structure | PfKRS1 | Pks13 thioesterase | CoaBC | TcHisRS | MtTrpRS | ClpP1P2 |
|---|---|---|---|---|---|---|
| `CC(C)(C)C(C#N)NC(=O)c1ccc(Oc2cccnc2)cc1` (stereo unspecified) | 3.048 | -3.036 | 2.893 | 2.89 | -5.217 | -14.95 |
| `Nc1nccc(C2CCCN2CCc2ccccc2)n1` (stereo unspecified) | 3.768 | - | 12.12 | 16.17 | -0.2342 | -31.17 |
| `Cc1nc(CCNC(=O)NC(C)Cn2cccn2)cs1` (stereo unspecified) | 0.5932 | 2.493 | 6.633 | 6.433 | -10.09 | -0.2021 |
| `CCCOc1ccccc1CCCNc1ncnc2oc(C)nc12` | 2.604 | 17.99 | 3.808 | 14.29 | 3.038 | -15.22 |

The values are deposited in ChEMBL (CHEMBL3988442, “University of Dundee, Small-Polar-MMV Screening Library” (2021)).